Here are results for 56 compounds from PubChem BioAssay AID1487 (National Center for Advancing Translational Sciences (NCATS), 2009).

Some of the results follow. Further columns of the screen follow, without active or inactive calls. The list favours compounds with an active or inconclusive main result. The note in brackets gives the kind of curve behind each potency; many fits are weak.

This test is described as follows: qHTS Assay for Modulators of Lamin A Splicing. As to conditions: HeLa LMNA splicing GFP/RFP minigene ratio, 48 h. The method in brief:
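S3 HeLa stable clones carrying a lamin A-EGFP splicing minigene plus DsRed2 were seeded at 600 cells/well in Opti-MEM with 2% FBS, pin-dosed and incubated 48 h at 37°C. Acumen cytometry (488 nm) gave the GFP/RFP total-intensity ratio.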

The mark [1] stands for this setting: measured here: GFP splicing reporter channel.
Setting [2] is: measured here: RFP viability control channel.

For `CC(C)c1nnc(NC(=O)CSc2nc3ccccc3s2)s1`, the half-maximal activity concentration (AC50) (commonly the concentration giving half of the maximal activity seen) under setting [1] is 28.2 µM [rising, single point].
`Cc1nnc2ccc(Oc3ccc(-c4ccccc4)cc3)nn12`: the AC50 under setting [2] was 17.8 µM [rising, partial curve].
As for `COc1ccc(N2CCN(C(c3ccccc3)c3nnc(-c4ccccc4Cl)o3)CC2)cc1` (stereo not drawn), the concentration at half-maximal activity (AC50) under setting [1] was 0.01 µM [falling, full curve, poor fit].
With `CCn1c(SCC(=O)NNC(=O)c2ccccc2)nnc1-c1ccco1`, the AC50 runs as follows: under setting [1], 3.98 µM [rising, single point]; under setting [2], 5.01 µM [rising, partial curve].
With `NC(=O)C1CCN(C(=O)Cc2ccc([N+](=O)[O-])cc2)CC1`, the half-maximal activity concentration (AC50) under setting [2] was 10 µM [rising, partial curve].
With `Cc1ccc(CS(=O)(=O)Cc2ccc(C(=O)NCCc3ccc(Cl)cc3)o2)cc1`, the half-maximal activity concentration (AC50) under setting [1] was 3.55 µM [falling, full curve, poor fit].
As to `Cc1ccc(-c2noc(C3CCN(S(=O)(=O)c4ccc5c(c4)OCCO5)CC3)n2)o1`, under setting [2], the AC50 was 14.1 µM [rising, partial curve].
Take `Cc1cc(=O)[nH]c(-n2nc(C)cc2C)n1`: the half-maximal activity concentration (AC50) runs as follows: under setting [1], 15.8 µM [falling, single point]; under setting [2], 35.5 µM [falling, single point].
With `Cc1noc(C)c1S(=O)(=O)N1CCC(C(=O)N2CCN(c3ccccc3Cl)CC2)CC1`, the AC50 under setting [2] was 14.1 µM [rising, single point].
As to `C[N+]1(C)CCC[C@@H](OC(=O)C(O)(c2ccccc2)c2ccccc2)C1`, the AC50 runs as follows: under setting [1], 0.0562 µM [falling, full curve]; under setting [2], 0.0316 µM [falling, partial curve, poor fit].
With `COc1ccccc1OCC(=O)NNC(=O)c1ccoc1C`, the concentration at half-maximal activity (AC50) is 0.00891 µM [rising, full curve, poor fit] under setting [1] and 0.01 µM [rising, full curve, poor fit] under setting [2].
With `NC(=O)CSc1nccn1Cc1ccc2c(c1)OCO2`, the AC50 under setting [1] is 0.501 µM [falling, partial curve].
As to `COc1ccccc1CNc1ncnc2ccc(-c3cccc(C#N)c3)cc12`, the AC50 reads like this: under setting [1], 14.1 µM [falling, partial curve]; under setting [2], 11.2 µM [falling, single point].
Take `COc1ccc2c(c1OC)C(=O)OC2Nc1nc(-c2cc3ccccc3oc2=O)cs1` (stereo not drawn): under setting [2], the concentration at half-maximal activity (AC50) is 12.6 µM [rising, single point].
Consider `C/C(CCc1ccc2c(c1)OCO2)=N\NC(=S)NC(C)C`, for which, under setting [2], the concentration at half-maximal activity (AC50) was 35.5 µM [falling, partial curve, poor fit].
For `CN(C)C(=S)NC1(C)CCS(=O)(=O)C1` (stereo not drawn), the AC50 under setting [2] is 6.31 µM [rising, single point].
On to `Fc1cccc(CSc2ccc3nnc(-c4ccccn4)n3n2)c1`, for which, under setting [2], the AC50 is 0.02 µM [rising, full curve].
Take `CC(C)OCC1CC(CC(=O)Nc2ccc([N+](=O)[O-])cc2)C(=O)O1` (stereo not drawn): the concentration at half-maximal activity (AC50) under setting [1] is 0.1 µM [falling, full curve, poor fit].
With `Cn1c(-c2sc3ccccc3c2Cl)n[nH]c1=S`, under setting [2], the AC50 is 14.1 µM [falling, partial curve].
With `S=C(NCC1CCCCC1)Nc1ccc(Oc2ccccc2)cc1`, the AC50 under setting [1] was 14.1 µM [rising, single point].
As to `O=C(CSc1ccc2ccccc2c1)Nc1ccncc1`, the AC50 under setting [2] is 6.31 µM [rising, partial curve].
Consider `c1ccc(CNC23CC4CC(CC(C4)C2)C3)nc1`, for which the AC50 under setting [1] is 4.47 µM [falling, full curve, poor fit].
As for `CCN(CC)S(=O)(=O)c1ccc(S(=O)(=O)Nc2ccc3c(c2)oc2ccccc23)cc1`, the AC50 is, setting by setting: under setting [1], 14.1 µM [rising, partial curve]; under setting [2], 22.4 µM [rising, single point].
Consider `Cc1cc(-c2ccc(C)c(S(=O)(=O)NCc3ccc(Cl)cc3)c2)on1`, for which the AC50 under setting [1] is 11.2 µM [falling, partial curve, poor fit].
Regarding `c1ccc(-c2cc(-c3nc4ccccc4[nH]3)c3ccccc3n2)cc1`, the AC50 under setting [2] was 1.12 µM [falling, full curve, poor fit].
`CCC(=O)Nc1ccc2nc(SCC(=O)N3CCc4ccccc43)sc2c1`: under setting [1], the concentration at half-maximal activity (AC50) was 1.58 µM [rising, full curve].
`COc1cc(C(=O)NC(=S)NCc2ccco2)cc(OC)c1OC`: the AC50 under setting [2] is 0.447 µM [falling, full curve, poor fit].
In the case of `O=C(Nc1cccc(NC(=O)c2ccc(-c3ccc(Br)cc3)o2)c1)c1ccco1`, the concentration at half-maximal activity (AC50) under setting [2] is 11.2 µM [rising, partial curve].
Take `COCCNC(=O)/C(C#N)=C/c1cccc(/C=C(\C#N)C(=O)NCCOC)c1`: the concentration at half-maximal activity (AC50) by setting is: under setting [1], 35.5 µM [falling, single point]; under setting [2], 35.5 µM [falling, single point].
Regarding `O=C(CSCc1cccc(CSCC(=O)Nc2ccc3ccccc3c2)n1)Nc1ccc2ccccc2c1`, the AC50 under setting [1] was 14.1 µM [rising, partial curve] and the half-maximal activity concentration (AC50) under setting [2] is 12.6 µM [rising, partial curve].
Take `CCCCn1c(CCC)nc([N+](=O)[O-])c1Sc1ccc(Cl)cn1`: the half-maximal activity concentration (AC50) was 12.6 µM [falling, partial curve] under setting [1] and 35.5 µM [falling, single point] under setting [2].
`C/C(=N\NC(=O)c1c[nH]c2ccccc12)c1ccccn1`: the AC50 under setting [2] was 6.31 µM [rising, partial curve].
As to `O=C(NCc1ccc(Cl)cc1)C(=O)NCC(c1ccco1)S(=O)(=O)c1cccs1` (stereo not drawn), the concentration at half-maximal activity (AC50) is 25.1 µM [falling, single point] under setting [1] and 0.01 µM [falling, full curve, poor fit] under setting [2].
With `O=C(N/N=C/c1ccccc1O)c1cccc(C(F)(F)F)c1`, under setting [2], the concentration at half-maximal activity (AC50) was 10 µM [rising, partial curve].
For the compound `Cc1cc(C(=O)CSc2nnc(-c3ccccc3)o2)c(C)n1CC1COc2ccccc2O1` (stereo not drawn), the AC50 under setting [1] was 35.5 µM [falling, partial curve, poor fit].
The same measure, in the same setting: next, `CC[n+]1ccc(C)c2cc(S(=O)C(F)(F)F)ccc21` (stereo not drawn): 11.2 µM [rising, partial curve].
For `CC(C)(C)NC(=O)c1cccc(NC(=O)Cc2ccc(Br)cc2)c1`, under setting [2], the AC50 is 25.1 µM [rising, single point].
The same measure, in the same setting: next, `CCOC(=O)C(C)(C)N(Cc1cccc(C)c1)S(=O)(=O)c1ccc(Cl)c([N+](=O)[O-])c1`: 11.2 µM [rising, partial curve, poor fit].
For `CCc1ccc(NC(=O)C2CCCN(S(=O)(=O)c3c(C)[nH]c(=O)[nH]c3=O)C2)cc1` (stereo not drawn), under setting [1], the AC50 is 0.178 µM [rising, full curve, poor fit].
Turning to `Cc1cc(C)n(-c2nc(NCCO)c3c4c(sc3n2)CCCC4)n1`, under setting [2], the concentration at half-maximal activity (AC50) was 10 µM [rising, partial curve].
For the compound `CSc1ccc(S(=O)(=O)NCCOc2ccccc2C)cc1`, the AC50 under setting [2] was 10 µM [rising, partial curve].
For `Cc1cc(=O)n2c(C(=O)Nc3ccc(C(=O)OC(C)C)cc3)c(C(=O)Nc3ccccc3)sc2n1`, the AC50 is, setting by setting: under setting [1], 17.8 µM [falling, single point]; under setting [2], 35.5 µM [falling, single point].
With `Cc1nc2nc(C)c(CCC(=O)NCCCN3CCN(c4cccc(Cl)c4)CC3)c(C)n2n1`, the AC50 was 0.708 µM [rising, full curve, poor fit] under setting [1] and 0.501 µM [rising, full curve, poor fit] under setting [2].
For `CCS(=O)(=O)NC(C)C(c1cccs1)N1CCN(c2ccc(F)cc2)CC1` (stereo not drawn), the concentration at half-maximal activity (AC50) under setting [2] is 8.91 µM [rising, partial curve, poor fit].
With `COc1ccc(Cl)cc1Nc1ncnc2c1nc1n2CCCC1`, the AC50 is 5.62 µM [falling, partial curve] under setting [1] and 31.6 µM [rising, single point] under setting [2].
Turning to `COC(=O)c1[nH]c2ccc(F)cc2c1NC(=O)Nc1ccc(OC)cc1`, under setting [2], the concentration at half-maximal activity (AC50) was 0.141 µM [falling, full curve, poor fit].
Regarding `CC(C)c1ccc(NC(=O)CNS(=O)(=O)c2ccc(F)cc2)cc1`, the concentration at half-maximal activity (AC50) runs as follows: under setting [1], 0.02 µM [falling, full curve, poor fit]; under setting [2], 0.02 µM [falling, full curve, poor fit].
`CNC(=O)c1cc2n(n1)CCCN(Cc1ccc(F)cc1)C2=O`: under setting [1], the AC50 was 0.0316 µM [rising, full curve, poor fit].
In the case of `O=C(Nc1ccc(SC(F)F)cc1)c1ccc(F)cc1`, the AC50 under setting [1] is 0.316 µM [falling, full curve, poor fit].
As to `Cc1ccc(C(=O)c2ccccc2C(=O)OCC(=O)NCCc2ccc(Cl)cc2Cl)cc1`, under setting [2], the concentration at half-maximal activity (AC50) is 14.1 µM [rising, single point].
Turning to `Cc1ccc(-c2nnn(CC(=O)N(Cc3ccco3)C(C(=O)NC(C)(C)C)c3ccc(C)o3)n2)o1` (stereo not drawn), the concentration at half-maximal activity (AC50) under setting [1] was 35.5 µM [falling, partial curve].
For `NC(=O)Cn1c(=O)n(-c2ccccc2)c(=O)c2oc3ccccc3c21`, under setting [2], the AC50 was 1.26 µM [rising, single point].
Regarding `Cc1ccccc1OCc1nnc(SCC(=O)Nc2ccc3nc(SCC(=O)Nc4ccccc4)sc3c2)n1C`, the AC50 is, setting by setting: under setting [1], 3.55 µM [rising, full curve, poor fit]; under setting [2], 8.91 µM [rising, partial curve, poor fit].
On to `O=C(CCCSc1nc(-c2ccco2)cc(C(F)(F)F)n1)Nc1ccc2c(c1)OCO2`, for which the AC50 under setting [2] was 22.4 µM [rising, partial curve].
Take `O=C1/C(=C\c2ccc3ccccc3c2)CCCc2ccccc21`: the AC50 is 17.8 µM [falling, partial curve] under setting [1] and 35.5 µM [falling, single point] under setting [2].
Consider `O=C(CSc1ncnc2ccccc12)Nc1cccc(S(=O)(=O)N2CCOCC2)c1`, for which the half-maximal activity concentration (AC50) was 0.178 µM [falling, full curve, poor fit] under setting [1] and 0.1 µM [falling, partial curve] under setting [2].
